No constants are given. Whether binding was seen depends on the method and setting. Binding seen in cells or lysates may run through a third protein. Some results given as binding are weak or reduced against the parent protein; the word gives no strength.
Experiments:
β-catenin (human) [1] = target: β-catenin (human) (UniProt P35222); assay: co-immunoprecipitation from HCT116 cell lysates: IP β-catenin, Western blot E-cadherin
β-catenin (human) [2] = target: β-catenin (human) (UniProt P35222); assay: co-immunoprecipitation from HCT116 lysates (β-catenin IP, E-cadherin blot, and the reverse); binding lowered after FGF19 treatment
β-catenin (human) [3] = target: β-catenin (human) (UniProt P35222); assay: co-immunoprecipitation from HCT116 lysates (figure legend)

The chains behind the UniProt entries cited, without tags or fusion partners. Residues count along the entry.
UniProt P35222, residues 2-781: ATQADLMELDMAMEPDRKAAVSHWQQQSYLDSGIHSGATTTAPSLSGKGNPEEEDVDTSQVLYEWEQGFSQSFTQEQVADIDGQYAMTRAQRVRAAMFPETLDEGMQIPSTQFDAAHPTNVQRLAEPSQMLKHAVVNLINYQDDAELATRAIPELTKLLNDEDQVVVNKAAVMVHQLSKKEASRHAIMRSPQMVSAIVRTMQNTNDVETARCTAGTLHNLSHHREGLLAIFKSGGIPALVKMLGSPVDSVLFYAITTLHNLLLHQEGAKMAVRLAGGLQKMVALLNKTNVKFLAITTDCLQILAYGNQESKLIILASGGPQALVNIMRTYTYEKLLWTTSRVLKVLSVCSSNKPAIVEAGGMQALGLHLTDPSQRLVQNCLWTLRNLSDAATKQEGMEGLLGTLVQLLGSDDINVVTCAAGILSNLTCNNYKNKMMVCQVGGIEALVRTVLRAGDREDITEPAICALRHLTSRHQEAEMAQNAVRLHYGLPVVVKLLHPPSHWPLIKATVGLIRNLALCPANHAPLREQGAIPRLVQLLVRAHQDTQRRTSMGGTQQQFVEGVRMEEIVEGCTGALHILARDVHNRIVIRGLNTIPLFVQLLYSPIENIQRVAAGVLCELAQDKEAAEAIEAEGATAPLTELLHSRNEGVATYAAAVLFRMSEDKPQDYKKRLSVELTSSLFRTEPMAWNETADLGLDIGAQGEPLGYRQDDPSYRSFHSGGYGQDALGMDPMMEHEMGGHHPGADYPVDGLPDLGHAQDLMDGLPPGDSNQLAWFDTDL
UniProt P12830, residues 155-882: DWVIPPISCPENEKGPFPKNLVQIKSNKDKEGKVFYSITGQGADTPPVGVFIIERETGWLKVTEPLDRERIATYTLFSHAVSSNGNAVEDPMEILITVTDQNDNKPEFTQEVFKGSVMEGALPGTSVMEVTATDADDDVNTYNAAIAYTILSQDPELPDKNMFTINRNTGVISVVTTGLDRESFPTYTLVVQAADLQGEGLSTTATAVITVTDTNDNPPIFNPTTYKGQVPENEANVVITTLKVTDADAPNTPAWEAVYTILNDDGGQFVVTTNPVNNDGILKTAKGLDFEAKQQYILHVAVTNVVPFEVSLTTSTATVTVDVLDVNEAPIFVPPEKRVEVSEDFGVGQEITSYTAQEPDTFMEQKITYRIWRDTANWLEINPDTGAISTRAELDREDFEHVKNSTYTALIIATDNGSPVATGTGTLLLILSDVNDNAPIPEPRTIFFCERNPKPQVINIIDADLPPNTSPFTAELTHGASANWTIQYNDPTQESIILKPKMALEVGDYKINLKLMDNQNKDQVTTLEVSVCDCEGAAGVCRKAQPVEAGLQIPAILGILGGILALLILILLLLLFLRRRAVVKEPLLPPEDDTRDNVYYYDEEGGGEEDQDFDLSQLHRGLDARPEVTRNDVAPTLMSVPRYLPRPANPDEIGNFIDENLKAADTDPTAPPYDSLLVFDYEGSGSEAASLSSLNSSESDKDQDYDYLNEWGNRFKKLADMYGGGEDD

binding (β-catenin (human) [1]): binds | binding (β-catenin (human) [2]): binds | binding (β-catenin (human) [3]): binds
Substance: E-cadherin (from UniProt P12830 155-882)

— US20070248604A1 (Genentech, published 2007)
